Source: article PMC9985628
These are yes or no findings as the source states them, for the method shown. In cells and extracts the contact can be indirect. Some results given as binding are weak or reduced against the parent protein; the word gives no strength. For some assays here: Sequences can lack the tags named with a protein.

Amino acid sequences for entries named in this document (tags omitted). A change or cut given only in a name is not applied to a line headed by its entry.
UniProt P39688: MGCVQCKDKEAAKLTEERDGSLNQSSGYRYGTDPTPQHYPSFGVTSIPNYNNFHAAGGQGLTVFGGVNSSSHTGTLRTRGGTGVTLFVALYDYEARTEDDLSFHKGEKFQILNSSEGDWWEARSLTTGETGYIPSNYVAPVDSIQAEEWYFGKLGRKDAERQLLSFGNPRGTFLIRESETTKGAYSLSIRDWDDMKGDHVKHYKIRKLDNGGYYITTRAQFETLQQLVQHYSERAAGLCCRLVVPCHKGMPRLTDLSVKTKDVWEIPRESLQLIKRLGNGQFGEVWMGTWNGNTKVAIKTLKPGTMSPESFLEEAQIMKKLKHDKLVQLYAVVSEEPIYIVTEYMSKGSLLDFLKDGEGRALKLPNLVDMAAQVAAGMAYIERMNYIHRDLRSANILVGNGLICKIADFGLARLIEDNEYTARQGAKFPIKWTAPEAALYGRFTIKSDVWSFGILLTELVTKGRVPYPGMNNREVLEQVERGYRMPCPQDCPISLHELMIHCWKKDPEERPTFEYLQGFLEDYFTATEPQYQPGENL
UniProt Q62844: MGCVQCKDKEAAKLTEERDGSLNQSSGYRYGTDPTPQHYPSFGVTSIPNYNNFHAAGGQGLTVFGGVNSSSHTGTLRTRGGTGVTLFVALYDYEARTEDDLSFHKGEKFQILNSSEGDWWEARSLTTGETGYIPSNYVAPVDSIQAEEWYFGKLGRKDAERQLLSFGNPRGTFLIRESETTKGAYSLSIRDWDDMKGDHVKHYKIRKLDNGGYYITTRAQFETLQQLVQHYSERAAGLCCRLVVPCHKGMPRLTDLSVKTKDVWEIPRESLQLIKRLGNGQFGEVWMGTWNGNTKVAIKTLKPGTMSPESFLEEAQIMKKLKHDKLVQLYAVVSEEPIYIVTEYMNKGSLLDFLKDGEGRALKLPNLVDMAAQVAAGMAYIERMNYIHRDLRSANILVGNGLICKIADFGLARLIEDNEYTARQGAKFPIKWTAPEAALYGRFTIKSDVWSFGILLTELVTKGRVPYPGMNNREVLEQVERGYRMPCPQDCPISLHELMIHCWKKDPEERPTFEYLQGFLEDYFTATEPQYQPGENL

T1: NADPH oxidase 4 (rat (endogenous in NRCMs)) (UniProt Q924V1)
T1 sequence: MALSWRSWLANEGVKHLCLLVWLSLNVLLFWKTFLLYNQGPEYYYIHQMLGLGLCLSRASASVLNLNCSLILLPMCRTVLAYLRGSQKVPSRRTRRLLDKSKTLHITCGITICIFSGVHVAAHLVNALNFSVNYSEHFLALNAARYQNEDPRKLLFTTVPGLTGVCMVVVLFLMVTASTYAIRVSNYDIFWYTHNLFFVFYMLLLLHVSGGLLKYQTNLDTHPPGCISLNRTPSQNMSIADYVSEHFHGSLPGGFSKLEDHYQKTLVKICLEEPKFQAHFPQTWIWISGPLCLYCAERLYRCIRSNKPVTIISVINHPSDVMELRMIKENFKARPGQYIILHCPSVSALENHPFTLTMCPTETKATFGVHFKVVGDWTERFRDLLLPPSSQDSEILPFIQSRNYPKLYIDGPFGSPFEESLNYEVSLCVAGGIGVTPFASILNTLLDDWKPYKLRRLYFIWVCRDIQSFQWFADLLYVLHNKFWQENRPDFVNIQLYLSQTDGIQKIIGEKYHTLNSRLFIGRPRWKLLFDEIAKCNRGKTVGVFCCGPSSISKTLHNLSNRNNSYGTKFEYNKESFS

T2: NADPH oxidase 4 (mouse heart) (mouse (endogenous in heart tissue)) (UniProt Q9JHI8)
T2 sequence: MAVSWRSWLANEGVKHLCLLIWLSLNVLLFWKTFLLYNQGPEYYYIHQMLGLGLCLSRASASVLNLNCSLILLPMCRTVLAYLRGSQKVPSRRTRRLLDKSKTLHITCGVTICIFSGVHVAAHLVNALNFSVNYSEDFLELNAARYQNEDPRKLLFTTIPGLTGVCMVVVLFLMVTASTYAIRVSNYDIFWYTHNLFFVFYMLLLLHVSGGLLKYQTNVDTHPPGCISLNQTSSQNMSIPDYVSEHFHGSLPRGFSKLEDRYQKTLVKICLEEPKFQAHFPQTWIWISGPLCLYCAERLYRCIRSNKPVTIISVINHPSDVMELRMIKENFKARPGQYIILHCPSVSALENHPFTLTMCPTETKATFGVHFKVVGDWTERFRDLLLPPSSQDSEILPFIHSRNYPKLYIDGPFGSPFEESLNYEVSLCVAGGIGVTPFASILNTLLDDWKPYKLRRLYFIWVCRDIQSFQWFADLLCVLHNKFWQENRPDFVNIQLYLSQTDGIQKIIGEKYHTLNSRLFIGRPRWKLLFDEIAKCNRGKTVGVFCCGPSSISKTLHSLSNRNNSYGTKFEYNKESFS

T3: NOX4 overexpressed from adenovirus (Ad-NOX4) (rat) (UniProt Q924V1)
T3 sequence: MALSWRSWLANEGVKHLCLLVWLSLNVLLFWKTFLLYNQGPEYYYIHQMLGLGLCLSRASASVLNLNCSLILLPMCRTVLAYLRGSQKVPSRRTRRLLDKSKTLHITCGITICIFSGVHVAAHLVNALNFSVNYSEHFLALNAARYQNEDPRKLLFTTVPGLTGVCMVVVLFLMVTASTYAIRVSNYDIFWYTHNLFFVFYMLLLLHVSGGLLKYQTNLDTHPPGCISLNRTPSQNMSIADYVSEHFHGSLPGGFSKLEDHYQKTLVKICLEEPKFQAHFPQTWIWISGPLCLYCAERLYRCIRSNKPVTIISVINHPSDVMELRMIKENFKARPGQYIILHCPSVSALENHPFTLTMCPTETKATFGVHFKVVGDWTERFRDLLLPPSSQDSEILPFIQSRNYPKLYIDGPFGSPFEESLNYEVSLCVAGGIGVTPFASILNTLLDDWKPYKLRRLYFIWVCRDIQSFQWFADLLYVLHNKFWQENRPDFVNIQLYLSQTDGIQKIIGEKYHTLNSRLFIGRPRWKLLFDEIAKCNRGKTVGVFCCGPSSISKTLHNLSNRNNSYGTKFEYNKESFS


Tests used:
[1] = target: T1, NADPH oxidase 4 (rat (endogenous in NRCMs)); assay: co-IP; competition: NRCMs transduced with Ad-FYN(1-80), with FGF18 overexpression; lysates in IGEPAL CA-630 buffer, immunoblot
[2] = target: T1, NADPH oxidase 4 (rat (endogenous in NRCMs)); assay: co-IP; NRCM lysates in IGEPAL CA-630 buffer (50 mM Tris-HCl pH 7.4, 1% IGEPAL CA-630, 10 mM EDTA, 150 mM NaCl, 50 mM NaF), primary antibody 2 h, Protein A/G magnetic beads, 4 °C, immunoblot; cells treated with FGF18 (50 ng/ml, 10 min), ISO, Ad-FGF18 or Ad-NOX4; IgG isotype as negative control
[3] = target: T2, NADPH oxidase 4 (mouse heart) (mouse (endogenous in heart tissue)); assay: co-IP; mouse heart tissue lysates in IGEPAL CA-630 buffer, Protein A/G magnetic beads, immunoblot; Sham or TAC, AAV9-cTnT-FGF18 or control
[4] = target: T2, NADPH oxidase 4 (mouse heart) (mouse (endogenous in heart tissue)); assay: co-IP; competition: hearts of mice given AAV9-cTnT-FGF18 and AAV9-cTnT-FYN(1-80), Sham or TAC; tissue lysates in IGEPAL CA-630 buffer, immunoblot
[5] = target: T1, NADPH oxidase 4 (rat (endogenous in NRCMs)); assay: co-IP; NRCM lysates in IGEPAL CA-630 buffer (50 mM Tris-HCl pH 7.4, 1% IGEPAL CA-630, 10 mM EDTA, 150 mM NaCl, 50 mM NaF), primary antibody 2 h, Protein A/G magnetic beads, 4 °C, immunoblot; cells treated with FGF18 (50 ng/ml, 10 min), ISO, Ad-FGF18 or Ad-NOX4; IgG isotype as negative control; remark: listed apart in the source
[6] = target: T3, NOX4 overexpressed from adenovirus (Ad-NOX4) (rat); assay: as above

Row | Molecule | binding [1] | binding [4] | also measured
1 | Tyrosine-protein kinase FYN (mouse heart) (from UniProt P39688 1-537) (enzyme) |  | binds | binding [3]: binds
2 | rat FYN_(1-80) (from UniProt Q62844 1-80) (domain or fragment) | binds |  | 
3 | p22^phox (protein, UniProt Q62737 1-192) MGQIEWAMWANEQALASGLILITGGIVATAGRFTQWYFGAYSIVAGVLICLLEYPRGKRKKGSTMERCGQKYLTAVVKLFGPLTRNYYVRAVLHLLLSVPAGFLLATILGTVCLAIASVIYLLAAIRGEQWTPIEPKPKERPQVGGTIKQPPTNPPPRPPAEVRKKPSEAEEEAASAGGPQVNPIPVTDEVV |  |  | binding [5]: binds; binding [6]: binds

Continued, in another order:

Row | binding [1] | binding [4] | Molecule | also measured
4 | binds |  | Tyrosine-protein kinase FYN (from UniProt Q62844 1-537) (enzyme) | binding [2]: binds
5 |  | binds | murine FYN_(1-80) (from UniProt P39688 1-80) (domain or fragment) | 
